According to article doi:10.1101/2020.12.09.418798:
These are yes or no findings as the source states them, for the method shown. In cells and extracts the contact can be indirect. Some entries that bind do so weakly or less than the wild type. Sequences can lack the tags named with a protein.

Sequences of proteins named here, by UniProt entry; tags and fusion partners are left off.
UniProt Q8RY59: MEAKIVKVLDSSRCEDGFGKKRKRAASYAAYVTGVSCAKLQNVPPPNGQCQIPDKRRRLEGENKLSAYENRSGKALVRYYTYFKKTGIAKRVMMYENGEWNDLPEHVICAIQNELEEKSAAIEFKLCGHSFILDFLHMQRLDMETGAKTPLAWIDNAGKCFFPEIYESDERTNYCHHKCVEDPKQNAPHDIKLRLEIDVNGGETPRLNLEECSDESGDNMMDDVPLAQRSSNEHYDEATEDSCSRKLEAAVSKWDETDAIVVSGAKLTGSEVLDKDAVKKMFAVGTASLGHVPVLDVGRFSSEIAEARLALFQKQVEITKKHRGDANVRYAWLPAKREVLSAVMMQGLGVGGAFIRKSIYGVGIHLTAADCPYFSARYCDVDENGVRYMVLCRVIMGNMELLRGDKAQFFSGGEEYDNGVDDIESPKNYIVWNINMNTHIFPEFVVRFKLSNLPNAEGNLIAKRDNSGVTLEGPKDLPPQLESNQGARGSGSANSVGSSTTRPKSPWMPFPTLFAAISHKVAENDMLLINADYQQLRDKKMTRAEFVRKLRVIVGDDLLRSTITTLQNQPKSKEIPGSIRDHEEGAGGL

What was measured:
[1] = molecular target: RADICAL-INDUCED CELL DEATH1 (RCD1), cYFP fusion (Arabidopsis) (UniProt Q8RY59); assay: split reporter
[2] = molecular target: T1, SIMILAR TO RCD-ONE 1 (SRO1), cYFP fusion (Arabidopsis) (UniProt O82289); assay: split reporter
T1 sequence: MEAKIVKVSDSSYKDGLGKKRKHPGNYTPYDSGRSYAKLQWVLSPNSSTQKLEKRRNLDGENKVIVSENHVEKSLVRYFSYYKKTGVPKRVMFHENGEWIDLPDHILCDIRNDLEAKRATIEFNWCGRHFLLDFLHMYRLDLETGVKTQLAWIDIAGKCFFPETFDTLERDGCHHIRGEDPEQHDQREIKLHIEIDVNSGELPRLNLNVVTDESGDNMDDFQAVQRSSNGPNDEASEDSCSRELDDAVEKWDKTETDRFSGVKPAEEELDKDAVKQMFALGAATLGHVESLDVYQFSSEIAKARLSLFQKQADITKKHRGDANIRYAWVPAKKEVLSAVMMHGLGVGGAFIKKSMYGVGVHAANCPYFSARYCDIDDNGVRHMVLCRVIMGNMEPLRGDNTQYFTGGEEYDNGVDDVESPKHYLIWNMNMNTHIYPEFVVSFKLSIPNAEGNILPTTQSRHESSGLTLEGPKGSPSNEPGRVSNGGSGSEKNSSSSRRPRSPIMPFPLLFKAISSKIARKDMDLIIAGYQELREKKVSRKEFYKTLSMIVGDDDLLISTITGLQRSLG

binding [2]: binds
B1: Dehydration-Responsive Element-Binding Protein 2B (DREB2B), nYFP fusion (protein, UniProt O82133 1-330)
chain: MAVYEQTGTEQPKKRKSRARAGGLTVADRLKKWKEYNEIVEASAVKEGEKPKRKVPAKGSKKGCMKGKGGPDNSHCSFRGVRQRIWGKWVAEIREPKIGTRLWLGTFPTAEKAASAYDEAATAMYGSLARLNFPQSVGSEFTSTSSQSEVCTVENKAVVCGDVCVKHEDTDCESNPFSQILDVREESCGTRPDSCTVGHQDMNSSLNYDLLLEFEQQYWGQVLQEKEKPKQEEEEIQQQQQEQQQQQLQPDLLTVADYGWPWSNDIVNDQTSWDPNECFDINELLGDLNEPGPHQSQDQNHVNSGSYDLHPLHLEPHDGHEFNGLSSLDI
binding [1]: binds
